Measurements taken from patent US20240092941A1 (FRED HUTCHINSON CANCER CENTER, published 2024).
Positions count from the first letter of the chain named. Results are given in words; binding and its absence hold for the method and conditions named. Some results given as binding are weak or reduced against the parent protein; the word gives no strength.

By UniProt entry, the sequences of proteins in these tests, tags left out. Where a name states a change or a piece, a line headed by the entry shows the natural chain unless it says otherwise. Residues count along the entry.
UniProt Q01973: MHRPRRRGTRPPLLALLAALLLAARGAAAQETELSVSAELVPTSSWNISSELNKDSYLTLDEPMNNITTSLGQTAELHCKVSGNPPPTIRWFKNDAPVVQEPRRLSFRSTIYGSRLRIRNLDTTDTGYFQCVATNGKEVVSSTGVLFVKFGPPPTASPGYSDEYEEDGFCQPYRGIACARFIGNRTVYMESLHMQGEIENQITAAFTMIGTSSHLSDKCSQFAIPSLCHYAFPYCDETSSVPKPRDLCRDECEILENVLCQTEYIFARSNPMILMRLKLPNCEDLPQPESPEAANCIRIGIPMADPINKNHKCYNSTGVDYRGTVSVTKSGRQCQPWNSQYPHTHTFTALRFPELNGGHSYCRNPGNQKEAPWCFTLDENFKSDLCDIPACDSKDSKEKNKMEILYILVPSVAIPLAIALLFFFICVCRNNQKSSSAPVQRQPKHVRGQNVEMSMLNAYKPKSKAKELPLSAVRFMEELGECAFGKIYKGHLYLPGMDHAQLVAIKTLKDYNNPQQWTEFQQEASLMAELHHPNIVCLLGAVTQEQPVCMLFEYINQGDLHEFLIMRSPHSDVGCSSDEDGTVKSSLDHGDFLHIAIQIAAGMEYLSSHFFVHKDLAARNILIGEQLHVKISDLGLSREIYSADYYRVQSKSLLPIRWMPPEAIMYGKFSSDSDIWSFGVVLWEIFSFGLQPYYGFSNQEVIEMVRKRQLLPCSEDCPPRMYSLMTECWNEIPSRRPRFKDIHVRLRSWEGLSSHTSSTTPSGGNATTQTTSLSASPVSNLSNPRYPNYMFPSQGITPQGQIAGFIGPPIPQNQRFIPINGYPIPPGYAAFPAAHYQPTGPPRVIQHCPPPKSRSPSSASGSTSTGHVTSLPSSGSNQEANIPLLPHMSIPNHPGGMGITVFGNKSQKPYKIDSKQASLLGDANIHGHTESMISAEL
endogenously expressed ROR1: residues 30-937 of Q01973
ROR1 Kringle fragment: residues 312-391 of Q01973

B1: Nb11 WT (VHH)
VHH: QVKLVQSGGGLVQAGGSLRLSCAASGSIFSSASMGWYRQAPGKPREQVASITRDGNTYYEDDVKGRFTISRDNARSTGYLQMNSLTPEDTGVYYCNVYQLGFYDKWGQGTQVIVSS
B2: Nb14 WT (VHH)
VHH: QVKLVQSGGGLVQTGGSLRLSCAASEITFDMYSMGWYREAPGKARDAVASITNRGNTYYADSVKGRFTISRDNAKKTMYLQMNSLKPEDTAVYYCNVYRTGFSDYWGQGTQVTVSS
B3: huNb14 Hi2 (VHH)
VHH: B2 VHH with E26G, E39Q, A44G, R45L, D46E, K76N, M78L, K86R, Q111L
B4: huNb14 Mid1 (VHH)
VHH: QVQLVQSGGGLVQTGGSLRLSCAASGITFDMYSMGWFRQAPGKGLDAVASITNRGNTYYADSVKGRFTISRDNAKNTLYLQMNSLRAEDTAVYYCNVYRTGFSDYWGQGTLVTVSS
B5: huNb14 Lo1 (VHH)
VHH: B4 VHH with T14P, F37Y, Q39E, D46E, N96A

Experiments:
[1] = molecular target: endogenously expressed ROR1 (UniProt Q01973); test: staining of cancer cell lines (FIG. 1D)
soluble ROR1 ectodomain [2] = molecular target: T1, soluble ROR1 ectodomain (UniProt Q01973 30-406, limits assumed); test: size exclusion chromatography of the complex
T1 construct: extracellular domain

ROR1 Kringle fragment [3] = molecular target: ROR1 Kringle fragment (UniProt Q01973); test: Superdex 200 SEC: Nb11 complex against free Nb11 and free Kringle fragment
ROR1 Kringle fragment [4] = molecular target: ROR1 Kringle fragment (UniProt Q01973); test: Superdex 200 SEC: Nb14 complex against free Nb14 and free Kringle fragment
soluble ROR1 ectodomain [5] = molecular target: T1, soluble ROR1 ectodomain; test: ranking of affinity; FIG. 2 gives surface display with ROR1-A647 and Kd by Carterra

| Binder | binding [1] | binding (soluble ROR1 ectodomain [2]) | binding (ROR1 Kringle fragment [3]) | binding (ROR1 Kringle fragment [4]) | binding (soluble ROR1 ectodomain [5]) |
| --- | --- | --- | --- | --- | --- |
| B1 | binds | binds | binds | – | – |
| B2 | binds | binds | – | binds | – |
| B3 | – | – | – | – | binds |
| B4 | – | – | – | – | binds |
| B5 | – | – | – | – | binds |
